Assay results taken from publication PMC3322156.
No constants are given. Whether binding was seen depends on the method and setting. Binding seen in cells or lysates may run through a third protein. Here binding means that the protein was enriched with, or labelled near, the bait; the list need not be complete.

The chains behind the UniProt entries cited, without tags or fusion partners. Where a name states a change or a piece, a line headed by the entry shows the natural chain unless it says otherwise.
UniProt Q9CQJ4: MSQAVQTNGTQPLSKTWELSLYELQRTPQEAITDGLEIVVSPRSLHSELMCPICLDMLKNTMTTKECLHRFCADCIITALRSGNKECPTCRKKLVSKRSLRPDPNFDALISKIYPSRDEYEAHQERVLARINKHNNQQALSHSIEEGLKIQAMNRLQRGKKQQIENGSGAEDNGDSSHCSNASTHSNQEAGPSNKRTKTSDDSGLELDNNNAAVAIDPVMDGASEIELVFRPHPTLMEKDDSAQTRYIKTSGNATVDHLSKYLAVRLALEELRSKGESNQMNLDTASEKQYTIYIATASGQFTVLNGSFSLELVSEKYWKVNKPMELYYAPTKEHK
UniProt P45481: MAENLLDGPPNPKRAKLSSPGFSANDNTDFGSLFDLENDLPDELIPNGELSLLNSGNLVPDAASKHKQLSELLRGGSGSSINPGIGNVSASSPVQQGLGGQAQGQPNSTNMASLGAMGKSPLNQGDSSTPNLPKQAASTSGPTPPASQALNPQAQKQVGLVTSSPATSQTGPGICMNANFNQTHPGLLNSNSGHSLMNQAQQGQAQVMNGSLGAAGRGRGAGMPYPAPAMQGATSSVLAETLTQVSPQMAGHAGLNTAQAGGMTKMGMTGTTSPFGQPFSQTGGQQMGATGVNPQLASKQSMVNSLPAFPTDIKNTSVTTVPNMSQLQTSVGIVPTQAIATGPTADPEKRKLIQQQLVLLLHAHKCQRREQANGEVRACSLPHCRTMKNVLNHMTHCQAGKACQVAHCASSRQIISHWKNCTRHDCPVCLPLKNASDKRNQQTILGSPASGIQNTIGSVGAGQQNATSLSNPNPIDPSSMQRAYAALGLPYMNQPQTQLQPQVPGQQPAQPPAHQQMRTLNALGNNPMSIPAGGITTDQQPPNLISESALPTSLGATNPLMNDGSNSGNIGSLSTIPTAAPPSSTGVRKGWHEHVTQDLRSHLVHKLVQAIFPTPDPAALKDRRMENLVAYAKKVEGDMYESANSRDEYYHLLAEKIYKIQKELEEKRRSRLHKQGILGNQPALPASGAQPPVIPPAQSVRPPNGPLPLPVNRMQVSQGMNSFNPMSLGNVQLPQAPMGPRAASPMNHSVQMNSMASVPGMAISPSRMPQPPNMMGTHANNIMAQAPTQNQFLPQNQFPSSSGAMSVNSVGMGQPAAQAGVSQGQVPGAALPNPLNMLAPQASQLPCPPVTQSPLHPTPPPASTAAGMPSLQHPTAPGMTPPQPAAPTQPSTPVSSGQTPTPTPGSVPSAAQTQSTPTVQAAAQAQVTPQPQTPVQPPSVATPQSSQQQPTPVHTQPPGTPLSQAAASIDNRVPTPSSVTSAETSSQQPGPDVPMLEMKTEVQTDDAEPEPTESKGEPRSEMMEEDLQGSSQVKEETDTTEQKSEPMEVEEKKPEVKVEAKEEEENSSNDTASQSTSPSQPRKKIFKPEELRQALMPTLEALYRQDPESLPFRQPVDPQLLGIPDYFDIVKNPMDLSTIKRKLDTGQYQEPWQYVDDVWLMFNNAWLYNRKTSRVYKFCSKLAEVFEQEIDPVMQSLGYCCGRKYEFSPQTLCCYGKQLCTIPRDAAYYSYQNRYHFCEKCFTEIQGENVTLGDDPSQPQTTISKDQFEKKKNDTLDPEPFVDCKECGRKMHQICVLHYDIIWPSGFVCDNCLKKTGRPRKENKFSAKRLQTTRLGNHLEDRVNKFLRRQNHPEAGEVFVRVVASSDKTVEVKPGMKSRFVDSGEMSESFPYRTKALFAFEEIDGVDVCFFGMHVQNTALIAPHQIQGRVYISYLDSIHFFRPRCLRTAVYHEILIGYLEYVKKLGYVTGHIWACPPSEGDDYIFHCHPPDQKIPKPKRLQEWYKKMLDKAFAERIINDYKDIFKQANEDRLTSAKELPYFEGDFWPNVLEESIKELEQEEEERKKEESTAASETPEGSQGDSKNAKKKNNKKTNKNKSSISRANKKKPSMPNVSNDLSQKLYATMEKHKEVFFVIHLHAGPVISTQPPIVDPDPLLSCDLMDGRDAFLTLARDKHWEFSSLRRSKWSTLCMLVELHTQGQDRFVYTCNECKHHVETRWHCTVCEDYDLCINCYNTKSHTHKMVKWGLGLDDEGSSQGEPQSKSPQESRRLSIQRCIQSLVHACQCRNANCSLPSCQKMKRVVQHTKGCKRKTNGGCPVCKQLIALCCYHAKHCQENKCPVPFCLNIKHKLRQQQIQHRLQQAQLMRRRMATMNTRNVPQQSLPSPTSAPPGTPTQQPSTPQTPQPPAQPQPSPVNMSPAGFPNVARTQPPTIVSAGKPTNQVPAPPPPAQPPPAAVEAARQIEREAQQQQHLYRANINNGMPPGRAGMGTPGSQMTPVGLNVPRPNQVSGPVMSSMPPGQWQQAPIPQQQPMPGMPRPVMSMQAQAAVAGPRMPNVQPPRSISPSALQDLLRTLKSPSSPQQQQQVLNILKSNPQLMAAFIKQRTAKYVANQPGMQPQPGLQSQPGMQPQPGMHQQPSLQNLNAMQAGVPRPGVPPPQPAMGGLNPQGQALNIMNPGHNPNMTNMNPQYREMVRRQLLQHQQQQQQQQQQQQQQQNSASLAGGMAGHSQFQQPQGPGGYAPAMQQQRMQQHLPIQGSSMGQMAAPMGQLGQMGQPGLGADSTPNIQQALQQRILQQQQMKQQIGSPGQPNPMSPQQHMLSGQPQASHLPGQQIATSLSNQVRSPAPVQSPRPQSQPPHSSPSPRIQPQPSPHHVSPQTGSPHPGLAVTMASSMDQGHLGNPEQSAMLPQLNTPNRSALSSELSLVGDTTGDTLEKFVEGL
UniProt Q6P5G3: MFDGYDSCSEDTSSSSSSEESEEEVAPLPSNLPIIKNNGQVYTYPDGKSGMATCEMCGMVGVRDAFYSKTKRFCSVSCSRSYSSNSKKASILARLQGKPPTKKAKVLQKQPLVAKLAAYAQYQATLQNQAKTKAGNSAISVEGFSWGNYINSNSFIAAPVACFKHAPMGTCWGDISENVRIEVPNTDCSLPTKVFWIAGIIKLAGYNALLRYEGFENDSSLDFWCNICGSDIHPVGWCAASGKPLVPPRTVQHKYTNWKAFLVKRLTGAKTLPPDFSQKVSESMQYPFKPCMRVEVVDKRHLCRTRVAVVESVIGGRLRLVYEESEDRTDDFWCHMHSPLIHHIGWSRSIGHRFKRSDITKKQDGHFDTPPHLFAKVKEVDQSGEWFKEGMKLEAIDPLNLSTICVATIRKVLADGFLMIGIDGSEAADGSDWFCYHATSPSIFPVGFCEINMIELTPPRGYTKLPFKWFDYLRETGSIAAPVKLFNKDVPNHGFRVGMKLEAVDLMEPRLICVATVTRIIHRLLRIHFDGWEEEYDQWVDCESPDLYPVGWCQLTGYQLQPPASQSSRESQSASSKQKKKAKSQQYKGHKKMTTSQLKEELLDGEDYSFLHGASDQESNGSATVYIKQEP
UniProt Q9DAT2: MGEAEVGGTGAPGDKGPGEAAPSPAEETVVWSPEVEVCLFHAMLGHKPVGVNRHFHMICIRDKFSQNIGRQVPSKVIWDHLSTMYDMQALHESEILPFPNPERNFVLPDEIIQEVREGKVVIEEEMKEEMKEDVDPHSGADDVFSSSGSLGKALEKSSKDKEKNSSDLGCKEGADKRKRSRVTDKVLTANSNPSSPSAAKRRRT
UniProt Q6NZQ4: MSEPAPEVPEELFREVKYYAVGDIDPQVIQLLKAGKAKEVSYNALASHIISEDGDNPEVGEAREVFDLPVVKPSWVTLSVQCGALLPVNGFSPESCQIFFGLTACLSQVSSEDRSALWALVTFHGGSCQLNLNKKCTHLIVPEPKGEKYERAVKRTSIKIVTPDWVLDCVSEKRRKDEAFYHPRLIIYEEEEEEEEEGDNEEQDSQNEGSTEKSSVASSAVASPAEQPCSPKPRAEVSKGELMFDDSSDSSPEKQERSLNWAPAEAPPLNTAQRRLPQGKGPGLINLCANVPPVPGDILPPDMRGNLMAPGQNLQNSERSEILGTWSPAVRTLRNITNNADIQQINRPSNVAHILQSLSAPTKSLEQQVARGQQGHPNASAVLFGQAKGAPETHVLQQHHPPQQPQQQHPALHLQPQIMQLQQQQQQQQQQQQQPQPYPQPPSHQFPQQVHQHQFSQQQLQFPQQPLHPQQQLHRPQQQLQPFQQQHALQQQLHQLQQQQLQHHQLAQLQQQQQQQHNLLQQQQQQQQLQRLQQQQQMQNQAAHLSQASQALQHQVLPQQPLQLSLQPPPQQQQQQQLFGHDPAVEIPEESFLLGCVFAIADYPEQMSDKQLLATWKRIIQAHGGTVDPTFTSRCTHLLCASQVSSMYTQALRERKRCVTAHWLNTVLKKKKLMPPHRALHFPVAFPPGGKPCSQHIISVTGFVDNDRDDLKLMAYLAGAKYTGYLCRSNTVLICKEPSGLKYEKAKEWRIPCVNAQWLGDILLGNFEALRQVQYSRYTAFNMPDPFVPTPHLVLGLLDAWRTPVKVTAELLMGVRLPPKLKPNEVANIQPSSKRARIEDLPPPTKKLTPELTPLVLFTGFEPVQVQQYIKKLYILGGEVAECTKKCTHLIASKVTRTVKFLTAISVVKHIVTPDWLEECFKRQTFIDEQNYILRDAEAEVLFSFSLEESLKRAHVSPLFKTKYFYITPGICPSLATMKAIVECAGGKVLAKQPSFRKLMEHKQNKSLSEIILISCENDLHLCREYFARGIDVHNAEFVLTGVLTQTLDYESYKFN
UniProt Q8R3B7: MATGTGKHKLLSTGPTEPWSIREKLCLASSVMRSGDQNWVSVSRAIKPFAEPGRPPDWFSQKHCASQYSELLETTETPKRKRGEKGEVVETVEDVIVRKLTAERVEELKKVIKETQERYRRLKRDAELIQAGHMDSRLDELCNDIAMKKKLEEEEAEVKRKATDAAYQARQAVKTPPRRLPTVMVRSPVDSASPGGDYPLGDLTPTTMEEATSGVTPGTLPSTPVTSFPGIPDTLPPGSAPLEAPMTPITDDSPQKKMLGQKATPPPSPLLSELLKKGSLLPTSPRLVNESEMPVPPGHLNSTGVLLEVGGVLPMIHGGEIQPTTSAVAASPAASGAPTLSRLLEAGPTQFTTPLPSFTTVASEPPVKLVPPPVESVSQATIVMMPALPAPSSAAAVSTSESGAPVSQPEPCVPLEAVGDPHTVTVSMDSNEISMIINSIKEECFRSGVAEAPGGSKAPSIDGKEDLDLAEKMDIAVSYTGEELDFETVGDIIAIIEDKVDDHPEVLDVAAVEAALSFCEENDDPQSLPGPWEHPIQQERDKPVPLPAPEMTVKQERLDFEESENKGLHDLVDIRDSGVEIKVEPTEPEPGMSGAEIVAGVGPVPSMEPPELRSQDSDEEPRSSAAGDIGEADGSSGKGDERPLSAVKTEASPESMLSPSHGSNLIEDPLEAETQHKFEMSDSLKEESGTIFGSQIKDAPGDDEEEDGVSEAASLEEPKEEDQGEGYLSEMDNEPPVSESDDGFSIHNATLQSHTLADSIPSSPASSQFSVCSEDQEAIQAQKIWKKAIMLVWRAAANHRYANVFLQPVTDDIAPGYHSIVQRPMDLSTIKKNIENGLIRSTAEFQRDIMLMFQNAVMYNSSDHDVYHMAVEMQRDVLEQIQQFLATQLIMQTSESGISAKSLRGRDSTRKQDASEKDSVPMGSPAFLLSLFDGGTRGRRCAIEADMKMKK
UniProt O54917: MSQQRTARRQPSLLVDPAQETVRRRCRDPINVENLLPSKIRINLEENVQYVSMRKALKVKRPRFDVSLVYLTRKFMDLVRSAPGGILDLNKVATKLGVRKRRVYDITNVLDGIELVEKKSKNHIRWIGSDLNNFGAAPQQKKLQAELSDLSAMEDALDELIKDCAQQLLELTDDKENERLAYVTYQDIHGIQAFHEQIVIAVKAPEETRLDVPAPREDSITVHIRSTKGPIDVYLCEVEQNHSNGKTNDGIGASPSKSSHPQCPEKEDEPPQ
UniProt P59178: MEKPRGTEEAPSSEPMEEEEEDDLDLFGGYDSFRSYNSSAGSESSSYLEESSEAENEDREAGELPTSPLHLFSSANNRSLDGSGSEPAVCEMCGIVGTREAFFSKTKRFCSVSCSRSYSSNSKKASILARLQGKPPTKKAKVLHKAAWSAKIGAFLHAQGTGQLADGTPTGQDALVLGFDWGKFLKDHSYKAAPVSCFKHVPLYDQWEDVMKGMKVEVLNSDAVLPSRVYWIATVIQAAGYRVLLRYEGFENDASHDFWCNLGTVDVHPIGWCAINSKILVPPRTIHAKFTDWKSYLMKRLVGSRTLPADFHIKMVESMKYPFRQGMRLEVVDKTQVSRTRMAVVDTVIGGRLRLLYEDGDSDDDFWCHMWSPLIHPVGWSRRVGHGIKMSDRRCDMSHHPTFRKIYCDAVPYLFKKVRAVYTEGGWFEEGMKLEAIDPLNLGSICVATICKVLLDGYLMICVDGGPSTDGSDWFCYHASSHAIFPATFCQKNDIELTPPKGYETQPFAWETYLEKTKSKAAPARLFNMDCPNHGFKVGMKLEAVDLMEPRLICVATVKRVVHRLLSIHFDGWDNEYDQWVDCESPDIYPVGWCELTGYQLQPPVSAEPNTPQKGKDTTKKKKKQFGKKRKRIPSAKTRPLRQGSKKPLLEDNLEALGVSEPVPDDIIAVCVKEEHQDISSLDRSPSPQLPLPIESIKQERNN

Experiments:
Ring1BI53A = Ring1BI53A (UniProt Q9CQJ4); assay: affinity purification with mass spectrometry; IP with anti-Ring1B (MBL, D139-3) from 400 ug ESC nuclear extract (WT cells, or Ring1B-/- cells rescued with Ring1BI53A), Protein G Sepharose 2 h at 4 C, washes BC300 (300 mM NaCl, 0.05% NP40) and BC100; 4-20% SDS-PAGE, bands cut, nLC-ESI-MS/MS; peptides also in the control IgG lane discarded; IgG heavy and light chain bands omitted
[1] = molecular target: Ring1B (mouse (endogenous in ESCs)) (UniProt Q9CQJ4); assay: as above

Row | binding (Ring1BI53A) | binding [1] | Substance
1 | binds | binds | BcoR (from UniProt Q8CGN4 1-1759)
2 | binds | binds | CBP (from UniProt P45481 1-2441) (enzyme)
3 | binds | binds | Mbtd1 (from UniProt Q6P5G3 1-631)
4 | binds | binds | Mga (from UniProt A2AWL7 1-3003)
5 | binds | binds | Mrgbp (from UniProt Q9DAT2 1-204)
6 | binds | binds | Paxip1 (from UniProt Q6NZQ4 1-1056)
7 | binds | binds | Ring1A (from UniProt O35730 1-406)

Further lines, the substance ahead of its results:

Row | Substance | binding (Ring1BI53A) | binding [1]
8 | Brd8 (from UniProt Q8R3B7 1-951) | binds | binds
9 | Dmap1 (from UniProt Q9JI44 1-468) | binds | binds
10 | E2F.6 (from UniProt O54917 1-272) | binds | –
11 | Epc1 (from UniProt Q8C9X6 1-813) | binds | binds
12 | L3mbtl2 (from UniProt P59178 1-703) | binds | binds
13 | Ruvbl2 (from UniProt Q9WTM5 1-463) | binds | binds
14 | Snf2h (from UniProt Q91ZW3 1-1051) | binds | binds
